A short description of the data set: general procedure: solution-phase peptide synthesis; mixed anhydride (isobutyl chloroformate or diphenylphosphinyl chloride); acyl az.
Where [1] appears, read: coupling step, phosphate, hydrochloride or free base (per example).
The mark [2] stands for this setting: coupling step, phosphate, hydrochloride or free base (per example), run 1.
Where [3] appears, read: coupling step, phosphate, hydrochloride or free base (per example), run 2.
Setting [4] is: late stage modification step, phosphate, hydrochloride or free base (per example).
Where [5] appears, read: late stage modification step, trifluoroacetate salt.
Where [6] appears, read: late stage modification step, phosphate (1:1) salt sesquihydrate.
The mark [7] stands for this setting: late stage modification step, phosphate (1:1) salt.
[8] abbreviates: late stage modification step, phosphate (1:2) salt dihydrate.
Where [9] appears, read: late stage modification step, phosphate (1:1) salt dihydrate.
[10] abbreviates: late stage modification step, hydrochloride salt monohydrate.
[11] abbreviates: late stage modification step, hydrochloride salt trihydrate.
[12] abbreviates: late stage modification step, phosphate (1:1) salt tetrahydrate.

Some peptides are written in HELM: one residue between dots, names in brackets for other building blocks, links after the first $.

Regarding BocDBpa-DTrp-Leu-MetNH2, the step yield under setting [1] is on record as 19%.

Under setting [1], BocDPro-Phe-Phe-Gly-Leu-MetNH2 yielded a step yield of 58%.

Under setting [1], BocLBpa-DTrp-Leu-MetNH2 gave a step yield of 19%.

For the substance BocPro-DBpa-Phe-DPhe-Leu-MetNH2, the step yield under setting [1] is 44%.

In turn, BocPro-DPhe-Bgl-DPhe-Leu-MetNH2 displayed a step yield under setting [1] of 58%.

In the case of BocPro-DPhe-DBpa-DTrp-Leu-MetNH2, under setting [1], the step yield was 46%.

For the substance BocPro-DPhe-Hfe-DPhe-Leu-MetNH2, the step yield under setting [1] worked out at 69%.

On to BocPro-DPhe-LBpa-DTrp-Leu-MetNH2, for which the step yield under setting [1] stood at 66%.

Regarding BocPro-DPhe-Pgl-DPhe-Leu-MetNH2, under setting [1], the step yield amounted to 68%.

The substance BocPro-DPhe-Phe-DPhe-Leu-MetNH2 had a step yield under setting [1] of 91%.

With BocPro-DPhe-Phe-DPhe-Leu-NleNH2, the step yield under setting [1] came out at 51%.

BocPro-DPhe-Phe-Gly-Leu-MetNH2 displayed a step yield under setting [1] of 82%.

Take BocPro-DPhe-Phe-Trp-Leu-MetNH2: the step yield under setting [1] is 97%.

As to BocPro-DPhg-Phe-Dphe-Leu-MetNH2, the step yield under setting [1] is listed as 89%.

Substance BocPro-DTrp-Gly-DTrp-Leu-MetNH2 registered a step yield under setting [1] of 36%.

BocPro-DTrp-MePhe-DTrp-Leu-MetNH2 registered a step yield under setting [1] of 31%.

BocPro-DTrp-Phe-DArg(Tos)-Leu-MetNH2: the step yield under setting [1] is given as 46%.

Under setting [1], BocPro-DTrp-Phe-DLys(Boc)-Leu-MetNH2 gave a step yield of 46%.

The substance BocPro-DTrp-Phe-DTrp-Leu-MeMetNH2 displayed a step yield under setting [1] of 60%.

BocPro-DTrp-Phe-DTrp-Leu-MeNleNH2 showed a step yield under setting [1] of 64%.

BocPro-DTrp-Phe-DTrp-Leu-MetNH2 came in with a step yield under setting [2] of 60% and a step yield under setting [3] of 57%.

Consider BocPro-DTrp-Phe-DTrp-MeLeu-MetNH2, for which, under setting [1], the step yield was 64%.

Under setting [1], BocPro-DTrp-Phe-MeDTrp-Leu-MetNH2 returned a step yield of 57%.

BocPro-DTrp-Phe-MeDTrpNHNH2 registered a step yield under setting [4] of 92%.

Under setting [1], BocPro-DTrp-Phe-MeDTrpOMe yielded a step yield of 27%.

In the case of BocPro-LBpa-Phe-DPhe-Leu-MetNH2, under setting [1], the step yield is 51%.

With BocPro-MeDTrp-Phe-DTrp-Leu-MetNH2, the step yield under setting [1] was 20%.

For BocPro-MePhe-Phe-Gly-Leu-MetNH2, under setting [1], the step yield worked out at 50%.

In turn, BocPro-Pcp-Pcp-Gly-Leu-MetNH2 yielded a step yield under setting [1] of 35%.

For the substance BocPro-Phe-MePhe-Gly-Leu-MetNH2, the step yield under setting [1] turned out to be 100%.

Under setting [1], BocPro-Phe-MePhe-GlyOBz yielded a step yield of 55%.

BocPro-Phe-MePhe-GlyOH gave a step yield under setting [4] of 100%.

Under setting [1], BocPro-Phe-MePhe-Sar-Leu-MetNH2 gave a step yield of 75%.

Turning to BocPro-Phe-Phe-CabLeu-MetNH2, the step yield under setting [1] worked out at 36%.

BocPro-Phe-Phe-DAla-Leu-MetNH2 displayed a step yield under setting [1] of 66%.

In the case of BocPro-Phe-Phe-Glu(tBu)-Leu-MetNH2, the step yield under setting [1] is 77%.

BocPro-Phe-Phe-Glu(tBu)NHNH2 registered a step yield under setting [4] of 58%.

As to BocPro-Phe-Phe-Glu(tBu)OMe, the step yield under setting [1] is 22%.

The substance BocPro-Phe-Phe-Gly-DLeu-MetNH2 came in with a step yield under setting [1] of 59%.

BocPro-Phe-Phe-Gly-Gal-MetNH2 returned a step yield under setting [1] of 28%.

The substance BocPro-Phe-Phe-Gly-Leu-DMetNH2 had a step yield under setting [1] of 60%.

Substance “BocPro-Phe-Phe-Gly-Leu-MetNH2 (Example 7)” returned a step yield under setting [1] of 79%.

As for BocPro-Phe-Phe-Gly-Leu-NleNH2, the step yield under setting [1] is listed as 69%.

As for BocPro-Phe-Phe-Gly-MeLeu-MetNH2, under setting [1], the step yield came to 49%.

As to BocPro-Phe-Phe-GlyOBz, the step yield was found to be 76% under setting [2] and 66% under setting [3].

As to BocPro-Phe-Phe-GlyOH, the step yield reads like this: (late stage modification step, phosphate, hydrochloride or free base (per example), run 1) 90%; (late stage modification step, phosphate, hydrochloride or free base (per example), run 2) 100%.

Under setting [4], BocPro-Phe-Phe-LDap(Boc)- LeuNHNH2 gave a step yield of 36%.

Under setting [1], BocPro-Phe-Phe-LDap(Boc)-Leu-MetNH2 yielded a step yield of 67%.

BocPro-Phe-Phe-LDap(Boc)-LeuOMe came in with a step yield under setting [1] of 75%.

With BocPro-Phe-Phe-Sar-Leu-MetNH2, the step yield under setting [1] is reported as 45%.

With HDBpa-DTrp-Leu-MetNH2, the step yield under setting [5] is given as 100%.

Regarding HLBpa-DTrp-Leu-MetNH2, the step yield under setting [5] is 100%.

On to HPro-DPhe-Phe-DTrp-Leu-MetNH2, for which, under “late stage modification step, phosphate (1:2) salt tetrahydrate”, the step yield was found to be 32%.

In the case of HPro-DTrp-Phe-DArg(Tos)-Leu-MetNH2, under setting [4], the step yield came out at 78%.

Consider HPro-MeDTrp-Phe-DTrp-Leu-MetNH2, for which the step yield (late stage modification step, phosphate salt monohydrate) is on record as 67%.

In the case of HPro-Phe-Phe-CabLeu-MetNH2, where the note is “late stage modification step, hydrochloride salt, cyclic, sequence written open”, the step yield was determined as 62%.

For the substance PEPTIDE1{P.F.F.E.L.M.[am]}$$$$V2.0, the step yield (late stage modification step, hydrochloride salt) was 38%.

For the substance PEPTIDE1{P.F.F.G.L.[Nle].[am]}$$$$V2.0, under setting [6], the step yield was 65%.

For the substance PEPTIDE1{P.F.F.G.L.[dM].[am]}$$$$V2.0, the step yield under setting [6] came to 72%.

With PEPTIDE1{P.F.F.G.[Gal].M.[am]}$$$$V2.0, the step yield (late stage modification step, dihydrochloride acetate salt hydrate) came to 35%.

In the case of “PEPTIDE1{P.F.F.G.[MeLeu].M.[am]}$$$$V2.0”, the step yield (late stage modification step, free base) was 36%.

As to PEPTIDE1{P.F.F.G.[dL].M.[am]}$$$$V2.0, the step yield under setting [7] is 59%.

Consider PEPTIDE1{P.F.F.[DBpa].L.M.[am]}$$$$V2.0, for which, where the note is “late stage modification step, dihydrochloride salt hydrate (2:7)”, the step yield stood at 91%.

With PEPTIDE1{P.F.F.[LBpa].L.M.[am]}$$$$V2.0, the step yield (late stage modification step, dihydrochloride salt tetrahydrate) is recorded as 79%.

Regarding PEPTIDE1{P.F.F.[LDap].L.M.[am]}$$$$V2.0, the step yield under setting [8] is 95%.

Turning to PEPTIDE1{P.F.F.[Sar].L.M.[am]}$$$$V2.0, the step yield under setting [6] turned out to be 59%.

In the case of PEPTIDE1{P.F.F.[dA].L.M.[am]}$$$$V2.0, the step yield under setting [6] is listed as 66%.

Regarding “PEPTIDE1{P.F.[MePhe].G.L.M.[am]}$$$$V2.0”, the step yield under setting [9] is 22%.

In the case of “PEPTIDE1{P.F.[MePhe].[Sar].L.M.[am]}$$$$V2.0”, the step yield under setting [7] stood at 59%.

Regarding PEPTIDE1{P.F.[dF].G.L.M.[am]}$$$$V2.0, under setting [10], the step yield amounted to 31%.

With “PEPTIDE1{P.[DBpa].F.[dF].L.M.[am]}$$$$V2.0”, for the setting “late stage modification step, dihydrochloride salt hexahydrate”, the step yield was 59%.

For “PEPTIDE1{P.[DPhg].F.[dF].L.M.[am]}$$$$V2.0”, the step yield (late stage modification step, phosphate (1:1) salt pentahydrate) amounted to 12%.

For “PEPTIDE1{P.[LBpa].F.[dF].L.M.[am]}$$$$V2.0”, under “late stage modification step, dihydrochloride salt hydrate (2:9)”, the step yield is reported as 53%.

As to “PEPTIDE1{P.[MePhe].F.G.L.M.[am]}$$$$V2.0”, the step yield under setting [10] was found to be 85%.

Turning to “PEPTIDE1{P.[Pcp].[Pcp].G.L.M.[am]}$$$$V2.0”, the step yield (late stage modification step, hydrochloride salt sesquihydrate) came to 76%.

As to PEPTIDE1{P.[dF].F.G.L.M.[am]}$$$$V2.0, under “late stage modification step, phosphate (1:1) salt monohydrate”, the step yield came to 59%.

With “PEPTIDE1{P.[dF].F.[dF].L.M.[am]}$$$$V2.0”, under setting [9], the step yield is 44%.

“PEPTIDE1{P.[dF].F.[dF].L.[Nle].[am]}$$$$V2.0”: the step yield under setting [11] was found to be 36%.

Take “PEPTIDE1{P.[dF].[Bgl].[dF].L.M.[am]}$$$$V2.0”: the step yield (late stage modification step, hydrochloride salt dihydrate) amounted to 86%.

With “PEPTIDE1{P.[dF].[DBpa].[dW].L.M.[am]}$$$$V2.0”, where the note is “late stage modification step, phosphate (2:3) salt trihydrate”, the step yield is given as 37%.

With “PEPTIDE1{P.[dF].[Hfe].[dF].L.M.[am]}$$$$V2.0”, where the note is “late stage modification step, hydrochloride diacetate salt pentahydrate”, the step yield was found to be 21%.

For “PEPTIDE1{P.[dF].[LBpa].[dW].L.M.[am]}$$$$V2.0”, the step yield (late stage modification step, phosphate (2:3) salt hydrate (2:5)) stood at 37%.

Consider “PEPTIDE1{P.[dF].[Pgl].[dF].L.M.[am]}$$$$V2.0”, for which the step yield under setting [11] is 75%.

For the setting “late stage modification step, hydrochloride hydrate (3:2)”, “PEPTIDE1{P.[dW].F.[MeDTrp].L.M.[am]}$$$$V2.0” gave a step yield of 59%.

For “PEPTIDE1{P.[dW].F.[dK].L.M.[am]}$$$$V2.0”, under “late stage modification step, phosphate (1:1) acetate (1:3) salt”, the step yield was found to be 26%.

Take “PEPTIDE1{P.[dW].F.[dR].L.M.[am]}$$$$V2.0”: the step yield (late stage modification step, dihydrochloride acetate (2:1) salt hydrate (2:5)) came to 61%.

Take “PEPTIDE1{P.[dW].F.[dW].L.M.[am]}$$$$V2.0”: the step yield amounted to 33% (late stage modification step, phosphate (1:1) salt hydrate (2:5)) and 62% (late stage modification step, phosphate (1:1) salt hydrate (2:7)).

“PEPTIDE1{P.[dW].F.[dW].L.[MeMet].[am]}$$$$V2.0”: under setting [8], the step yield was 57%.

Regarding “PEPTIDE1{P.[dW].F.[dW].L.[MeNle].[am]}$$$$V2.0”, under setting [12], the step yield is recorded as 30%.

As for “PEPTIDE1{P.[dW].F.[dW].[MeLeu].M.[am]}$$$$V2.0”, the step yield under setting [12] stood at 67%.

“PEPTIDE1{P.[dW].G.[dW].L.M.[am]}$$$$V2.0”: the step yield (late stage modification step, phosphate (2:3) salt) is recorded as 59%.

On to “PEPTIDE1{P.[dW].[MePhe].[dW].L.M.[am]}$$$$V2.0”, for which, under setting [8], the step yield was determined as 23%.

With PEPTIDE1{[dP].F.F.G.L.M.[am]}$$$$V2.0, the step yield under setting [6] came out at 72%.

Source of the values: patent US4472305A (Sterling Drug Inc., priority 1983, dated 1984).
